Measurements published in patent US7615554B2, “Erastin and erastin binding proteins, and uses thereof” (Prolexys Pharmaceuticals, Inc., priority 2005, dated 2009).
At least one structure is not confirmed: it was looked up by name or label, or the drawing left a doubt.

How the values were obtained:
Format in all cases: cell-based, human
[1] = system: BJ-TERT/LT/ST/RAS^V12 cells; assay: Western blot for active caspase-3
Protocol: BJ-TERT/LT/ST/RAS^V12 cells were seeded prior to the experiment at 5×10^5 cells in 60 mm dishes. The cells were treated with 5 μg/ml erastin (9 μM) for 2, 4, 6, 8 or 10 hours. One dish was maintained for camptothecin treatment (0.4 μlg/ml for 24 h) as a positive control. Cells were lysed after each time point in lysis buffer (50 mM HEPES KOH pH 7.4, […], 2 mM EDTA, 0.5% Triton X-100, 1.5 mM Na3VO4, 50 mM NaF, 10 mM sodium pyrophosphate, 10 mM sodium beta-glycerophosphate and protease inhibitor tablet (Roche)). Protein content was quantified using a Biorad protein assay reagent. Equal amounts of protein were resolved on 16% SDS-polyacrylamide gel. The electrophoresed proteins were transblotted onto a PVDF membrane, blocked with 5% milk and incubated with anti-active caspase-3 polyclonal antibody (BD Pharmingen) at 1:1500 dilution overnight at 4° C. The membrane was then incubated in anti-rabbit-HRP (Santa Cruz Biotechnology) at 1:3000 dilution for 1 hour and developed with an enhanced chemiluminescence mixture (NEN life science, Renaissance). To test for equivalent loading in each lane, blots were stripped, blocked, and probed with an anti-eIF-4E antibody (BD Transduction laboratories) at 1:1000 dilution.

[2] = system: BJ-TERT/LT/ST/RAS^V12 cells; assay: Nuclear morphology assay; settings: 9 μM erastin or 1.1 μM camptothecin, 18 hours
Excerpt: Applicants sought to characterize the type of cell death induced by CPT and erastin in tumorigenic BJ-TERT/LT/ST/RAS^V12 cells. […] To determine whether erastin or CPT induces apoptosis in their system, Applicants monitored the nuclear morphology of CPT- and erastin-treated tumorigenic cells using fluorescence microscopy. […] Since nuclear morphological change is required of apoptotic cells, Applicants conclude that cell death induced by erastin is non-apoptotic. […] Additionally, nuclei remained intact in erastin-treated tumor cells (FIG. 9).
200,000 tumorigenic BJ-TERT/LT/ST/RAS^V12 cells were seeded in 2 mL on glass coverslips in each well of a six-well dish, treated with nothing (NT), 9 μM erastin or 1.1 μM camptothecin (CPT) in growth medium for 18 hours while incubating at 37° C. with 5% CO2. Nuclei were stained with 25 μg/mL Hoechst 33342 (Molecular Probes) and viewed using an oil immersion 100× objective on a fluorescence microscope.

[3] = system: engineered cell lines; assay: Selectivity across the engineered cell lines (calcein AM IC50 ratios)
Protocol: To calculate this selectivity score between two cell lines, the IC50 for a compound in one cell line was divided by the IC50 for the same compound in a second cell line. […] The “tumor selectivity score” was calculated for each compound, by dividing the IC50 value for the compound in the parental, primary BJ cells by the IC50 value for the compound in engineered BJ-TERTALT/ST/RAS^V12 cells, containing all four genetic elements required to create tumorigenic cells (Table 1).
Applicants sought to determine the genetic basis of selectivity for each compound. That is, for each compound, they attempted to define the gene or combination of genes responsible for rendering cells sensitive to the compound (Table 1).
The IC50 in primary BJ cells was divided by the IC50 in BJ-TERT/LT/ST/RAS^V12 tumorigenic cells to obtain a tumor selectivity ratio for each compound. The compound selectivity for each genetic element was determined by calculating the selectivity ratio for each subsequent pair of cell lines in a series.

SMILES: CCOc1ccccc1-n1c(C(C)N2CCN(C(=O)COc3ccc(Cl)cc3)CC2)nc2ccccc2c1=O (stereo not shown) [Erastin, erastin]
- cleaved, active caspase 3 [1]: but not erastin
- nuclear morphology by fluorescence microscopy [2]: no such morphological alternation was visible
- killing of cells lacking RAS^V12 and ST ([3]; concentrations eight-fold higher than required in cells expressing both RAS^V12 and ST): failed to kill cells lacking RAS^V12 and ST
- Genetic basis of Selectivity ([3]; from selectivity ratio for each subsequent pair of cell lines in a series): RAS^v12/PP2A
